Data on 1 molecule can be found in patent US12344637B2, “Virus-inspired compositions and methods of redirecting preexisting immune responses using the same for treatment of cancer” (priority 2020, dated 2025).

The series in a line: Percent peptide conjugation by SDS-PAGE densitometry. Conditions: 5:1 reducing agent to L1, 10:1 peptide to L1.

B1: MPV.10.34.d capsid backbone (protein)
chain: MLYLPPTTPVAKVQSTDEYVYPTSLFCHAHTDRLLTVGHPFFSVIDNDKVTVPKVSGNQYRVFRLKFPDPNKFALPQKDFYDPEKERLVWRLRGLEIGRGGPLGIGTTGHPLFNKLGDTENPNKYQQGSKDNRQNTSMDPKQTQLFIVGCEPPTGEHWDVAKPCGALEKGDCPPIQLVNSVIEDGDMCDIGFGNMNFKELQQDRSGVPLDIVSTRCKWPDFLKMTNEAYGDKMFFFGRREQVYARHFFTRNGSVGEPIPNSVSPSDFYYAPDSTQDQKTLAPSVYFGTPSGSLVSSDGQLFNRPFWLQRAQGNNNGVCWHNELFVTVVDNTRNTNFTISQQTNTPNPDTYDSTNFKNYLRHVEQFELSLIAQLCKVPLDPGVLAHINTMNPTILENWNLGFVPPKEREDPYKGLIFWEVDLTERFSQDLDQFALGRKFLYQ
In the case of B1, the conjugation efficiency entry is reported as “above 50%”.
